The target of the assay is T1, endothelial nitric oxide synthase (eNOS), wild-type 140 kDa, human (human (endogenous in EA.hy926)) (UniProt P29474).
T1 sequence: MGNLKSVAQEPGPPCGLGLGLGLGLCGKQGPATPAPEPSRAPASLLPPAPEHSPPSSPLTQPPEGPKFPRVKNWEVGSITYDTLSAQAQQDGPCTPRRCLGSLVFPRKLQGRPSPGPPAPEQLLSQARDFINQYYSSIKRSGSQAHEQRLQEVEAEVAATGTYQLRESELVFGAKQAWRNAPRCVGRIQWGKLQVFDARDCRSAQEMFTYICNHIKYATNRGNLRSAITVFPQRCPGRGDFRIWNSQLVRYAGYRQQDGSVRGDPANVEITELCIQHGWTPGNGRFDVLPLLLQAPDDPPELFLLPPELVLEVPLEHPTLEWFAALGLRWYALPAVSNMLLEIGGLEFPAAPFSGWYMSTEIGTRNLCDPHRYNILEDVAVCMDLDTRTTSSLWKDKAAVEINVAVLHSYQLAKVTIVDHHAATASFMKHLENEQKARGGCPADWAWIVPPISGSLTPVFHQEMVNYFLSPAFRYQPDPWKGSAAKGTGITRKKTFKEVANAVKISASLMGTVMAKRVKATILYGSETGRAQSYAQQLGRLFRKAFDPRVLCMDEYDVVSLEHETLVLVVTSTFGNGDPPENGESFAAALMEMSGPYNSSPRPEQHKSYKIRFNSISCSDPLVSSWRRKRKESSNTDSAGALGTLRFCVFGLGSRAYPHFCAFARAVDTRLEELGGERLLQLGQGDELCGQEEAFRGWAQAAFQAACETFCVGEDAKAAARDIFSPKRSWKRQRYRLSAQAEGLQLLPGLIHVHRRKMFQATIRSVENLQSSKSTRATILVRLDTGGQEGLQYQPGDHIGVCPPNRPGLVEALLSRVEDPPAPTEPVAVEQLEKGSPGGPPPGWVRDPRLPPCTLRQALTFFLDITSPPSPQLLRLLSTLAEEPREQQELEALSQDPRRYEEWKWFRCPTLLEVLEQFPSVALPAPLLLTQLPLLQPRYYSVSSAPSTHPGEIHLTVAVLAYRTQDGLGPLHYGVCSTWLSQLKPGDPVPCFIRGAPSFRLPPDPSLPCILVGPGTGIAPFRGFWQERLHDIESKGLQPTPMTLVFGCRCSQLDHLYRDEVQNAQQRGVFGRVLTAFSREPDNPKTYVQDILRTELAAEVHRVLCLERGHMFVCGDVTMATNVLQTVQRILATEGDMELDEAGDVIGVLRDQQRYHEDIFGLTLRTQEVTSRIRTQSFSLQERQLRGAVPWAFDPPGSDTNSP
In words: co-IP; native proteins of confluent, unstimulated EA.hy926 cells; CHAPS immunoprecipitation buffer; anti-eNOS or anti-LSP1 rabbit polyclonal antibody overnight at 4 °C, protein A/G magnetic beads, washed in PBST; immunoblot. In general terms: A western blot detects proteins with antibodies after separation by electrophoresis.

Amino acid sequences for entries named in this document (tags omitted).
UniProt P33241: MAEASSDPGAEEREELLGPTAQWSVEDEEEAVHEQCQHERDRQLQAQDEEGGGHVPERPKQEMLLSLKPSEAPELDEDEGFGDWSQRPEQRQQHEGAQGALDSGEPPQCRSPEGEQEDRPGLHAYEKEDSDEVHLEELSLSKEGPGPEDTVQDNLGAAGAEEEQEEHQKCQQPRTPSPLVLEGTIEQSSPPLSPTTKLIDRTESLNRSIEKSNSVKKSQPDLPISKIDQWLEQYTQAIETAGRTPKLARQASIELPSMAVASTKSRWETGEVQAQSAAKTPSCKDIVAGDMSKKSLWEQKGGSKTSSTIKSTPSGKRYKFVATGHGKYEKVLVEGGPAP

Results are given in words; binding and its absence hold for the method and conditions named. In cells and extracts the contact can be indirect. Some binding calls cover weakened binding; strength is not graded here.

Turning to “lymphocyte-specific protein 1 (LSP1), human, native (from UniProt P33241 1-339)”, the binding entry is “binds”.

The values are drawn from PMC10813790, “Lymphocyte-Specific Protein 1 Regulates Expression and Stability of Endothelial Nitric Oxide Synthase” (Biomolecules, 2024).
